# Measurements reported in PubChem BioAssay AID1508588 (Peter MacCallum Cancer Centre, 2020)
# Aim: 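Genome-wide search for knock-downs that heighten vemurafenib action in melanoma cells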 (primary screen)
# Cells: human WM266.4 melanoma cells (BRAF V600 mutant)
# Knock-down reagent: siRNA pool against human genes, 40 nM
# Time to read-out: 96 h from transfection to read-out
# Conditions: vemurafenib 300 nM (about IC25), added 48 h after transfection, for 48 h; comparison arm got DMSO vehicle only
# Measurement: 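Cell gain (DAPI nuclei at end minus before drug, mean of two replicates) and medium lactate by absorbance per cell, both as ratio to non-targeting siRNA, also grouped into fold-change classes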
# Reading the numbers: cell gain with vemurafenib: higher = more cell gain than with non-targeting siRNA; lactate per cell with vemurafenib: higher = more lactate made per cell
# Active means: 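a knock-down counts as enhancing when its fold-change classes with vehicle and with vemurafenib, taken together, show a stronger drug effect on cell gain or lactate per cell; exact class pairs not stated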
# Meaning of the calls: active = enhances vemurafenib effect; inactive = no enhancement seen
# Here is a random part of about 18,000 reagents. Of all reagents, 790 (4.4%) are marked active. 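Calls rest on a combination of fold-change classes in drug and vehicle arms, not all shown here.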 A reagent listed more than once was tested more than once; the source does not tell the runs apart.
The first 3 entries, ahead of the listing:
target gene,cell gain with vemurafenib,lactate per cell with vemurafenib,activity call
KRTAP6-1,0.71,0.56,inactive
STARD5,0.26,0.34,active
EIF2S3,0.18,1.38,inactive

The listing, from the start:
target gene,cell gain with vemurafenib,lactate per cell with vemurafenib,activity call
KRTAP6-1,0.71,0.56,inactive
STARD5,0.26,0.34,active
EIF2S3,0.18,1.38,inactive
TFAP2D,0.51,1.03,inactive
GTSE1,0.38,0.66,inactive
RAD50,0.67,0.82,inactive
EHMT1,1.01,0.72,inactive
VANGL1,0.55,0.58,inactive
FN3K,0.79,0.97,inactive
FCGR3A,-0.08,0.68,inactive
ARL6,0.89,0.52,inactive
UNC5CL,0.48,0.71,inactive
ANKRD50,0.17,0.07,active
C5orf15,0.11,0.54,active
POLR1C,0.9,1.04,inactive
CELF3,0.59,1.19,inactive
FBXL7,1.2,0.78,inactive
AMBP,0.21,1.43,inactive
ANKRD20A5P,0.39,0.93,inactive
ZNF689,0.77,0.65,inactive
SMARCD1,0.72,1.15,inactive
KRTAP19-2,0.88,1.3,inactive
OR6Y1,0.14,0.48,inactive
TPPP3,0.52,0.6,inactive
NELL1,0.67,1.28,inactive
BCAP31,0.12,2.5,inactive
DSG1,0.47,0.3,inactive
HAS2,1.05,0.86,inactive
SELENOH,0.59,1.36,inactive
NOP10,0.9,0.69,inactive
SPIN3,0.17,0.66,inactive
GAS7,1.01,0.8,inactive
CSMD1,0.42,0.72,inactive
MGME1,0.37,1.35,inactive
KLHDC3,0.28,1.57,inactive
SLC43A3,0.88,0.82,inactive
TRPM7,0.63,0.54,inactive
TRPM7,0.49,0.96,inactive
PSMA2,-0.2,3.14,inactive
PHF5A,1.03,0.84,inactive
GALNTL5,0.69,1.27,inactive
GJC2,0.37,1.84,inactive
HSPB8,0.67,0.46,active
SOCS6,0.66,1.15,inactive
ACAN,0.41,0.6,inactive
GHR,0.27,0.43,inactive
FMN2,0.89,0.8,inactive
OR2AG1,0.64,0.8,inactive
ZC3H7A,0.6,0.59,inactive
ABO,0.8,0.86,inactive
XAGE3,0,1.62,inactive
PYCR2,0.32,1.62,inactive
SC5D,0.93,0.83,inactive
KLK12,0.6,0.62,inactive
TESK1,0.63,1.11,inactive
IL17REL,0.28,2.47,inactive
ATOH8,1.04,0.87,inactive
CSHL1,0.17,3.46,inactive
ZNF641,0.44,1.38,inactive
TFDP1,0.13,0.64,inactive
TPP1,0.59,0.56,inactive
RUNDC1,0.51,0.63,inactive
SLC37A1,0.3,1.16,inactive
KLF14,0.69,0.34,inactive
TNFAIP3,0.96,0.64,inactive
TNFAIP3,0.49,0.97,inactive
FLNC,0.78,0.44,inactive
RFX6,0.98,0.5,inactive
BMP2,0.78,0.42,inactive
RNF214,0.91,0.68,inactive
SPHK2,0.98,1.1,inactive
VXN,0.31,1.02,inactive
SPANXC,-0.11,3.34,inactive
CIITA,0.79,1.02,inactive
TRPM4,1.32,1.25,inactive
TMPRSS11E,0.47,1.3,inactive
RBMY1J,0.95,0.7,inactive
TRMT11,0.84,1.12,inactive
OAT,0.74,0.86,inactive
CACNA1S,0.88,0.72,inactive
GPR160,0.99,0.73,inactive
EMP2,0.82,1.34,inactive
SNAI1,0.67,1.56,inactive
AIF1,0.52,0.7,inactive
